# According to the supplement of paper PMC9578143, “Small-Molecule Ebselen Binds to YTHDF Proteins Interfering with the Recognition of N^6-Methyladenosine-Modified RNAs” (ACS Pharmacology & Translational Science, 2022):
# The list shows a part of the results. Baselines shift from plate to plate; read single values as rough.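 Hits were defined as a z-score below −3.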
# Target: T1, YTHDF1 YTH domain (aa 365-554) (UniProt Q9BYJ9)
# T1 sequence (whole entry): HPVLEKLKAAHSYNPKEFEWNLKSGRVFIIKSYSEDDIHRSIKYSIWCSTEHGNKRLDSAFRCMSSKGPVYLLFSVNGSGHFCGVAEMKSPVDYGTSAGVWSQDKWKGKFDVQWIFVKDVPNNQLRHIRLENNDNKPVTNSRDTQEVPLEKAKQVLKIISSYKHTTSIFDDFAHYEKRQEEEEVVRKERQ
# Assay: tryptophan fluorescence intensity z-score (mean); higher = higher fluorescence, less quenching (negative = binding / quenching)
# Details: 10 µM
row,SMILES,tryptophan fluorescence intensity z-score
1,COc1cc([C@@H]2c3cc4c(cc3[C@@H](O)[C@H]3COC(=O)[C@H]23)OCO4)cc(OC)c1O (plate: M 23-24),inactive: 0.535
2,CCCC(C)(COC(N)=O)COC(=O)NC(C)C (stereo not drawn) (plate: M 1-2),inactive: 0.348
3,C[C@@]12C(=O)OC(=O)[C@]1(C)[C@H]1CC[C@@H]2O1 (plate: M 21-22),inactive: -0.114
4,COC(C)(C)CCC[C@H](C)C/C=C/C(C)=C/C(=O)OC(C)C (plate: M 23-24),inactive: 0.36
5,COc1cc(OC)c(OC)cc1C=O (plate: M 15-16),inactive: 0.515
6,C[N+]1(C)CCCC(OC(=O)C(O)(c2ccccc2)c2ccccc2)C1 (stereo not drawn) (plate: M 3-4),inactive: 0.0766
7,CN1C2CCC1CC(O)C2 (stereo not drawn) (plate: M 23-24),inactive: 0.589
8,CC(=O)O[C@@H]1C[C@H]2C(C)(C)C(=O)C=C[C@]2(C)[C@H]2CC[C@]3(C)C(=CC(=O)O[C@H]3c3ccoc3)[C@@]21C (plate: M 13-14),inactive: 0.157
9,N[C@@H]1C[C@H]1c1ccccc1.N[C@H]1C[C@@H]1c1ccccc1 (plate: M 5-6),inactive: -0.0224
10,CC1(C)C(=O)C=C[C@@]2(C)C1=C(O)C(=O)[C@]1(C)[C@@H]2CC[C@@]2(C)[C@H](c3ccoc3)C[C@H]3O[C@]321 (plate: M 13-14),inactive: 0.722
11,C[C@H]1CC[C@]2(NC1)O[C@H]1C[C@H]3[C@@H]4CC[C@H]5C[C@@H](O[C@@H]6O[C@H](CO)[C@H](O[C@@H]7O[C@H](CO)[C@@H](O)[C@H](O[C@@H]8OC[C@@H](O)[C@H](O)[C@H]8O)[C@H]7O[C@@H]7O[C@H](CO)[C@@H](O)[C@H](O)[C@H]7O)[C@H](O)[C@H]6O)CC[C@]5(C)[C@H]4CC[C@]3(C)[C@H]1[C@@H]2C (plate: M 23-24),inactive: 0.073
12,Cc1c(O)c(O)cc2c1CC=C1[C@@]2(C)CC[C@@]2(C)[C@@H]3C[C@](C)(C(=O)O)CC[C@]3(C)CC[C@]12C (plate: M 19-20),inactive: 0.0656
13,O=C1CCO1 (plate: M 13-14),inactive: 0.656
14,CCC(=O)O[C@H]1CC[C@H]2[C@@H]3CCC4=CC(=O)CC[C@]4(C)[C@H]3CC[C@]12C (plate: M 1-2),inactive: 0.493
15,C[C@@H]1CC[C@]2(NC1)O[C@H]1C[C@H]3[C@@H]4CC=C5C[C@@H](O)CC[C@]5(C)[C@H]4CC[C@]3(C)[C@H]1[C@@H]2C (plate: M 13-14),inactive: 0.869
16,C[C@]12C=CC(=O)C=C1CC[C@@H]1[C@@H]2CC[C@]2(C)C(=O)CC[C@@H]12 (plate: M 21-22),inactive: 0.36
17,CCN1C[C@]2(OC(=O)c3ccccc3NC(C)=O)CC[C@H](OC)[C@@]34[C@@H]2C[C@@H]([C@@H]13)[C@@]1(O)C[C@H](OC)[C@H]2C[C@@H]4[C@]1(O)[C@H]2OC (plate: M 21-22),inactive: 0.223
18,CC(=O)CC1CCCCN1 (stereo not drawn) (plate: M 17-18),inactive: 0.266
19,CCN1C[C@]2(COC)[C@H](O)C[C@H](OC)[C@@]34[C@@H]5C[C@@]6(O)[C@H](OC(=O)c7ccccc7)[C@@H]5[C@@](OC(C)=O)([C@@H]([C@H](OC)[C@H]23)[C@@H]14)[C@@H](O)[C@@H]6OC (plate: M 5-6),inactive: 0.28
20,CC[C@@]1(O)C[C@H](O[C@H]2C[C@H](N(C)C)[C@H](O)[C@H](C)O2)c2c(cc3c(c2O)C(=O)c2c(O)ccc(O)c2C3=O)[C@H]1C(=O)OC (plate: M 15-16),inactive: -0.0942
21,O=[N+]([O-])c1cc([As](=O)(O)O)ccc1O (plate: M 5-6),inactive: 0.216
22,"CC(=O)C1CCC2C3CCC4C[C@H](O)CCC4(C)C3C[C@H](O)C12C (stereo partly drawn) [DIHYDROXY(3alpha,12alpha)PREGNAN-20-ONE] (plate: M 15-16)",inactive: 0.7
23,CC(C)CCCC1(C)C=Cc2c(O)c3c(c(CCC(C)C)c2O1)OC12C(CC4CC1C(C)(C)OC2(CCC(C)C(=O)O)C4O)C3=O (stereo not drawn) (plate: M 15-16),inactive: 0.414
24,CCC1(c2ccc(N)cc2)CCC(=O)NC1=O (stereo not drawn) (plate: M 1-2),inactive: -0.633
25,C[C@@H](N)[C@@H](O)c1ccccc1 (plate: M 21-22),inactive: -0.121
26,NCCc1ccc(O)cc1 (plate: M 15-16),inactive: 0.701
27,CN(C)C(=O)Oc1cc(OC(=O)N(C)C)cc(C(O)CNC(C)(C)C)c1 (stereo not drawn) (plate: M 23-24),inactive: 0.226
28,CCn1cc(C(=O)O)c(=O)c2cc3c(cc21)OCO3 (plate: M 7-8),inactive: -0.151

# Structural class: the entries above with a carbonyl joined to an NH by a bond outside any ring
row,SMILES,tryptophan fluorescence intensity z-score
2,CCCC(C)(COC(N)=O)COC(=O)NC(C)C (stereo not drawn) (plate: M 1-2),inactive: 0.348
17,CCN1C[C@]2(OC(=O)c3ccccc3NC(C)=O)CC[C@H](OC)[C@@]34[C@@H]2C[C@@H]([C@@H]13)[C@@]1(O)C[C@H](OC)[C@H]2C[C@@H]4[C@]1(O)[C@H]2OC (plate: M 21-22),inactive: 0.223
